Results on 22 molecules are retold here after paper PMC7699536.

Protein sequences, listed by entry. Tags and fused reporters are not part of them. Lines headed by an entry give the natural chain unless they say otherwise; changes in a name come on top. Residues count along the entry.
UniProt Q9Y281: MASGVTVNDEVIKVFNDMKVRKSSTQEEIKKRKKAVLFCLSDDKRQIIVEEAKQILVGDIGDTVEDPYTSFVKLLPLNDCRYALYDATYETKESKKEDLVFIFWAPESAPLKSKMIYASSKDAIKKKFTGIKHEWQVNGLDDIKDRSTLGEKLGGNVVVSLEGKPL
UniProt Q14247: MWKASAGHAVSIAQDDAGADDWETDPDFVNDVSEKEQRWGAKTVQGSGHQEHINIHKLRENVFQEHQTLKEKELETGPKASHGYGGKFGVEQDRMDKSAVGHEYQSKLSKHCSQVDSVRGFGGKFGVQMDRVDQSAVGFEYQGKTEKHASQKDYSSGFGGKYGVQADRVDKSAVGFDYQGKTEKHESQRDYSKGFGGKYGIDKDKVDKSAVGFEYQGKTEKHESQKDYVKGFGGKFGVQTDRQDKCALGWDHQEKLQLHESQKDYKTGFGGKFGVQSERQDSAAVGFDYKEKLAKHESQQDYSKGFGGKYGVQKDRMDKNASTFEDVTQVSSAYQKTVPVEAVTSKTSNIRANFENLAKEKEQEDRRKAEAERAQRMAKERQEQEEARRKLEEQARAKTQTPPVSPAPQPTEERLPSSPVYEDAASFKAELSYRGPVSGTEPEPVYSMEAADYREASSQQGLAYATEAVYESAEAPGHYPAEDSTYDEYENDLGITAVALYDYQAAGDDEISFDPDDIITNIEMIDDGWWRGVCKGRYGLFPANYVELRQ
UniProt P05556: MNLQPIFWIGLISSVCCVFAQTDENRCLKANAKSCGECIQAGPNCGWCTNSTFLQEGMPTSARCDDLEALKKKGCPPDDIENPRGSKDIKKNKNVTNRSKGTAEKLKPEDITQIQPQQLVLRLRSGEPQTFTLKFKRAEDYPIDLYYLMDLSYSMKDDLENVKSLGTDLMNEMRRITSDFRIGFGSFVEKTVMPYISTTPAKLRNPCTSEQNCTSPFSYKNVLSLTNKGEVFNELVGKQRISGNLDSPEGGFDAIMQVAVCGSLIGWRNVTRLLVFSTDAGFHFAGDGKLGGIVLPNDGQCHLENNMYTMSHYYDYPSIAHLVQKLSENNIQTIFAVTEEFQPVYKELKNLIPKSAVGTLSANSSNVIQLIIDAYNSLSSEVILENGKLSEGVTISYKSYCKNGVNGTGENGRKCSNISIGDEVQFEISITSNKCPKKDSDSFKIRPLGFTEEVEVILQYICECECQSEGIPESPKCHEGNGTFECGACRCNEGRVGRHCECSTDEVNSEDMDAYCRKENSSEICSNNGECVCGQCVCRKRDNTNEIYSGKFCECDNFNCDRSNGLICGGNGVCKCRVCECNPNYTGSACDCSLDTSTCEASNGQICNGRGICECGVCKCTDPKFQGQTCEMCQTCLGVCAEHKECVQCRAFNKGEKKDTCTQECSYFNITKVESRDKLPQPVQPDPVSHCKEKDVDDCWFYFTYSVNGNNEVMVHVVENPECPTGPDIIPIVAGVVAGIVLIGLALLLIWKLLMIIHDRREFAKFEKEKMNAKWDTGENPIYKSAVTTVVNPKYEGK
UniProt P33176: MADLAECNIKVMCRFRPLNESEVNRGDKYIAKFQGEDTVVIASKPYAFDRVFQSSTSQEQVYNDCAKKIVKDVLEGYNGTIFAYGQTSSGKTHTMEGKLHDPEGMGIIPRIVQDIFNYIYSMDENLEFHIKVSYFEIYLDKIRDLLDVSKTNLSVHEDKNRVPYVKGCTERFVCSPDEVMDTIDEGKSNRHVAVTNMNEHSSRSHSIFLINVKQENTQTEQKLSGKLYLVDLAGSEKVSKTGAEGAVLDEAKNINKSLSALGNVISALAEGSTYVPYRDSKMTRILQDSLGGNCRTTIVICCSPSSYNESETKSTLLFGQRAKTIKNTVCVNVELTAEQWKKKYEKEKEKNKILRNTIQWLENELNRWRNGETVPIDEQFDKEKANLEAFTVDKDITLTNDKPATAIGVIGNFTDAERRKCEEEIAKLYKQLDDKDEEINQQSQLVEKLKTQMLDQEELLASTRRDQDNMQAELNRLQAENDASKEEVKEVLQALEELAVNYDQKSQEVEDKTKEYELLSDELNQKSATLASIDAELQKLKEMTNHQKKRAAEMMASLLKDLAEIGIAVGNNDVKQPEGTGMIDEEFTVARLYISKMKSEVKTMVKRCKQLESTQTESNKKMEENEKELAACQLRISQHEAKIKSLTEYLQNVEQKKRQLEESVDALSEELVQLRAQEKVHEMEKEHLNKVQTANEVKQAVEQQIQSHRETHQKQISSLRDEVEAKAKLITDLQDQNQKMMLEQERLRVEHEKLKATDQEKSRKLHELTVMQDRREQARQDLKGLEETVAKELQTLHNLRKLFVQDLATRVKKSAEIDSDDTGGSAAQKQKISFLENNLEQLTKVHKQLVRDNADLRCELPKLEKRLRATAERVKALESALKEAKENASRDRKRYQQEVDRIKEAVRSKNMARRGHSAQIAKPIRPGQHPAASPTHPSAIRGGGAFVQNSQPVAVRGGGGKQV
UniProt P24043, residues 23-3122: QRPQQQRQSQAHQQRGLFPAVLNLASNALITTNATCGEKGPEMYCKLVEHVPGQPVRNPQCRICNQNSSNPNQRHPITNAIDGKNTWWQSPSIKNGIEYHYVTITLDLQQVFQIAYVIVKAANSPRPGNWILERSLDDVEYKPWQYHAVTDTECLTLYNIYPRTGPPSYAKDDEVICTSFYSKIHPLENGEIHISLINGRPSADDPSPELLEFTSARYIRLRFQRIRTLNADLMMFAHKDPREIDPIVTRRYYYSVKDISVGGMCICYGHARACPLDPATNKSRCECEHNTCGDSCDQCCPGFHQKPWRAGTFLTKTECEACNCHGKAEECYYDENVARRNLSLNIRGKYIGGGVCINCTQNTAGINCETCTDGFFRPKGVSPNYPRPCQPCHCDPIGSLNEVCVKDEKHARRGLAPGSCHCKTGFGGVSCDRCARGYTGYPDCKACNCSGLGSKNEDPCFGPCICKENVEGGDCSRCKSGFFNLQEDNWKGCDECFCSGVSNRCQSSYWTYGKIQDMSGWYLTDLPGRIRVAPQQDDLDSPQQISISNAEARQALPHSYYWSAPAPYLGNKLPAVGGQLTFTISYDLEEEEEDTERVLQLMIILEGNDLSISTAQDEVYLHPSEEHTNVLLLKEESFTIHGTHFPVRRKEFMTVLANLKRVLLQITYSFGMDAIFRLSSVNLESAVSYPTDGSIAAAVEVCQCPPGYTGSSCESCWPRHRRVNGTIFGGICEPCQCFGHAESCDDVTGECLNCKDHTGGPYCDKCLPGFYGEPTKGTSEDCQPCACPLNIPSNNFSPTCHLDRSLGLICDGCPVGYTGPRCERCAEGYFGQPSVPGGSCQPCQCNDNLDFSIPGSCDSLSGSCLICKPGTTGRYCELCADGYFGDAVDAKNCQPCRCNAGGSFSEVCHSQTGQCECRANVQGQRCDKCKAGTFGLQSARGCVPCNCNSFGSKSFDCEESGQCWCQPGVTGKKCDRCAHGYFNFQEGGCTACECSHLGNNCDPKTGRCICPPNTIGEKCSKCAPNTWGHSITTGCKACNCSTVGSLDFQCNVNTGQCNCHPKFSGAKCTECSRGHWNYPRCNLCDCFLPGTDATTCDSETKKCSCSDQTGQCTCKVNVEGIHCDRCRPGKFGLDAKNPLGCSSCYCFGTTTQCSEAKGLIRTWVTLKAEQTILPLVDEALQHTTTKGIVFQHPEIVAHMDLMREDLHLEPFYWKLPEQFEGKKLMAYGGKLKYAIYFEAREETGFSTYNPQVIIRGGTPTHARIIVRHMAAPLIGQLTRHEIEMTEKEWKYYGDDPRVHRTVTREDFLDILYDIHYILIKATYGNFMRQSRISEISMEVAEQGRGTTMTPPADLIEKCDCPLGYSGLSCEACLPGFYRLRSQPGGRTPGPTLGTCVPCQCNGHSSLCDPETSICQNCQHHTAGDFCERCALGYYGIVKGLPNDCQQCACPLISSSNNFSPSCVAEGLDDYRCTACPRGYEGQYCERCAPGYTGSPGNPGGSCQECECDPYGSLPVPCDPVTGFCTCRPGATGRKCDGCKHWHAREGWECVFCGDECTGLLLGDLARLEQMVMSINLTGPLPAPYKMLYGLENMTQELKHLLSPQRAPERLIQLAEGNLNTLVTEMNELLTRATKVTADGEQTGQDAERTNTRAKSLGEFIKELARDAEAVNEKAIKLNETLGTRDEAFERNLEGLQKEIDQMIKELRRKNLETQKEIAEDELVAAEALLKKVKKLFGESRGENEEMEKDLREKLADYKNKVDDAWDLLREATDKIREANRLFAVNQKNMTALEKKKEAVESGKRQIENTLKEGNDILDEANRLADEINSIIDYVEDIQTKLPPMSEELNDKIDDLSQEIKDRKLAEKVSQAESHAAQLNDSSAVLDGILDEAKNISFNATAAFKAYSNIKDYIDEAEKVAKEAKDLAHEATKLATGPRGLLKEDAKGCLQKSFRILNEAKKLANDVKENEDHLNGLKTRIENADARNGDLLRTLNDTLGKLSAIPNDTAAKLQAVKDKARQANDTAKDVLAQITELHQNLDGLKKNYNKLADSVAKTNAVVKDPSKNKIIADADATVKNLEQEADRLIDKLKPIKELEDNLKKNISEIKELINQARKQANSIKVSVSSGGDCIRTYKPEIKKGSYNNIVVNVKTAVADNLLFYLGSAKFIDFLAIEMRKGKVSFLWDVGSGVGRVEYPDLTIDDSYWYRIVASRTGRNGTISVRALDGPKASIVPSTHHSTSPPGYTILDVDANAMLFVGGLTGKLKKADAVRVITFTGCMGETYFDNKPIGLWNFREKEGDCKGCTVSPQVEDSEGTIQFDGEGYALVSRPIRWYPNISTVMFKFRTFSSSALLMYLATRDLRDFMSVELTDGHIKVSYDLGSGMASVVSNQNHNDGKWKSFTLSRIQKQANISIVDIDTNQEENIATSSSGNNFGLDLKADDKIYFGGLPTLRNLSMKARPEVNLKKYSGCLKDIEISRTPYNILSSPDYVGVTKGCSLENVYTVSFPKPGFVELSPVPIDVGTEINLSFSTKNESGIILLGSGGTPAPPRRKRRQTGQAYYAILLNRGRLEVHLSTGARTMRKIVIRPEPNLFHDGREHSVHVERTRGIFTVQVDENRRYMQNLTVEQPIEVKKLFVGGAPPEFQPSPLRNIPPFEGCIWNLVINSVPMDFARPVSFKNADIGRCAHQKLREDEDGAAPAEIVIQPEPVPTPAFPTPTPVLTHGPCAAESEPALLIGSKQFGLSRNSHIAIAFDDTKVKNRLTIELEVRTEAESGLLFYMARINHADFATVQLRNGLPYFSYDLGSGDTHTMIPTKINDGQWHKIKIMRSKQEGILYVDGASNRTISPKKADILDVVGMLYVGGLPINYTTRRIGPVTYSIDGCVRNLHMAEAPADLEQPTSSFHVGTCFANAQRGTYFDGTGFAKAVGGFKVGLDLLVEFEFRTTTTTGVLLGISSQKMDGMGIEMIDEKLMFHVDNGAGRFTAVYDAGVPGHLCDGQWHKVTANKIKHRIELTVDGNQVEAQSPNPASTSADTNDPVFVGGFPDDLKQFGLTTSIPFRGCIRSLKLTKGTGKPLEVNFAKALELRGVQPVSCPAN
UniProt P14649: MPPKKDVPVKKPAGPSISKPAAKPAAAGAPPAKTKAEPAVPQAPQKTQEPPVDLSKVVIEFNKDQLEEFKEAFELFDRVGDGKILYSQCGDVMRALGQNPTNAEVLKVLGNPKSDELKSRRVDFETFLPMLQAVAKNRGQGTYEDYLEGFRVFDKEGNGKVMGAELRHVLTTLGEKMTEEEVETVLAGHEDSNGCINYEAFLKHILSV
UniProt P16949: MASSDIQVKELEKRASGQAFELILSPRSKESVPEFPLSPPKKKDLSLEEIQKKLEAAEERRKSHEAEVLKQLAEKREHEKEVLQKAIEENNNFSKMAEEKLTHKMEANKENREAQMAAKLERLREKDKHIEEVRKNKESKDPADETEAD
UniProt Q9BVA1: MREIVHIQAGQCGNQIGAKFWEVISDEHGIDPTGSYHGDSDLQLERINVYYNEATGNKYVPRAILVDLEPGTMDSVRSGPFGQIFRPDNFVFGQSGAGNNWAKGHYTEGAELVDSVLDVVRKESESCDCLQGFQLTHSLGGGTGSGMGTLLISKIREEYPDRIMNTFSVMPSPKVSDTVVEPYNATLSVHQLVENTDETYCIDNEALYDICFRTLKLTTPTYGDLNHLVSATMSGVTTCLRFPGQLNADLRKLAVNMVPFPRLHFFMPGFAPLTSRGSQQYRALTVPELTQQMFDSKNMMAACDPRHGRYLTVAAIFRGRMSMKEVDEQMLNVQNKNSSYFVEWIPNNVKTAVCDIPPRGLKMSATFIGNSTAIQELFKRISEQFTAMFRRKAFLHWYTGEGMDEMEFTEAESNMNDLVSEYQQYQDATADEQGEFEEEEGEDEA

The experiment deals with T1, FLAG-SEPT14 (wild type), expressed in NT2D1 cells (human) (UniProt Q6ZU15).
T1 sequence: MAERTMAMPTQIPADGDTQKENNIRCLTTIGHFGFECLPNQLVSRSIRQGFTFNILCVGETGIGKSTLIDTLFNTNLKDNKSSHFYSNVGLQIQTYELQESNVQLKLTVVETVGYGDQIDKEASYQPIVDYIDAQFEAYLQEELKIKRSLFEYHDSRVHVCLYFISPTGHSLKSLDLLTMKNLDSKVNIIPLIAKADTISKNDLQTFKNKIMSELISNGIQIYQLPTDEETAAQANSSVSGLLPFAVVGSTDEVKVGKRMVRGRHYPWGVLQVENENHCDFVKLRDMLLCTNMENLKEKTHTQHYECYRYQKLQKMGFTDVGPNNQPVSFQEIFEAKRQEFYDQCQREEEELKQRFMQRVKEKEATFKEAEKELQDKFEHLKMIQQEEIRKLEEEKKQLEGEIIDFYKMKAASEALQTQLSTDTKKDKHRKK
As to the kind of experiment: affinity purification with mass spectrometry; lysate of NT2D1 cells transfected with pFLAG-SEPT14, precipitated with FLAG antibody (control IgG beside it) on protein A/G beads at 4 °C overnight, washed twice with PBS; nano-LC-MS/MS; triplicate.

Results are given in words; binding and its absence hold for the method and conditions named. Binding seen in cells or lysates may run through a third protein. A yes stands for co-enrichment or nearness to the bait. Other partners may have been found. Where a sequence is shown, tags or fusion partners need not be part of it.

As to “ACTN4 (actinin, alpha 4), endogenous in NT2D1 cells (from UniProt O43707 1-911)”, the binding result is reported as “binds”.
To “Actinin, alpha 2 (from UniProt P35609 1-894)” belongs “binds”; to “Actinin, alpha 3 (from UniProt Q08043 1-901)”, “binds”; to Cofilin 2 (from UniProt Q9Y281 1-166), “binds”.
For Cortactin (from UniProt Q14247 1-550), the binding result was “binds”.
To “Dynein, cytoplasmic 1, light intermediate chain 1 (from UniProt Q9Y6G9 1-523)” belongs “binds”; to “Fibrous sheath interacting protein 2 (from UniProt Q5CZC0 1-6907)”, “binds”; to “Integrin beta-1 (from UniProt P05556 21-798)”, “binds”.
For “Kinesin family member 5B (from UniProt P33176 1-963)” the value was “binds”; for “Laminin subunit alpha 2 (from UniProt P24043 23-3122)”, “binds”.
For “Myosin light chain 6B (from UniProt P14649 1-208)”, the binding result is “binds”.
To “Myosin, heavy chain 14 (from UniProt Q7Z406 1-1995)” belongs “binds”; to Stathmin (from UniProt P16949 1-149), “binds”; to “Tubulin beta 2A (from UniProt Q13885 1-445)”, “binds”.
Consider “Tubulin beta 2B (from UniProt Q9BVA1 1-445)”, for which the binding result was “binds”.
Take “Tubulin, beta 4B (from UniProt P68371 1-445)”: the binding entry was “binds”.

B1: Septin 11 (protein, UniProt Q9NVA2 1-429)
chain: MAVAVGRPSNEELRNLSLSGHVGFDSLPDQLVNKSTSQGFCFNILCVGETGIGKSTLMDTLFNTKFESDPATHNEPGVRLKARSYELQESNVRLKLTIVDTVGFGDQINKDDSYKPIVEYIDAQFEAYLQEELKIKRSLFNYHDTRIHACLYFIAPTGHSLKSLDLVTMKKLDSKVNIIPIIAKADTIAKNELHKFKSKIMSELVSNGVQIYQFPTDEETVAEINATMSVHLPFAVVGSTEEVKIGNKMAKARQYPWGVVQVENENHCDFVKLREMLIRVNMEDLREQTHTRHYELYRRCKLEEMGFKDTDPDSKPFSLQETYEAKRNEFLGELQKKEEEMRQMFVMRVKEKEAELKEAEKELHEKFDLLKRTHQEEKKKVEDKKKELEEEVNNFQKKKAAAQLLQSQAQQSGAQQTKKDKDKKNASFT
Turning to B1, the binding entry is listed as “binds”.

B2: Zyxin (protein, UniProt Q15942 1-572)
chain: MAAPRPSPAISVSVSAPAFYAPQKKFGPVVAPKPKVNPFRPGDSEPPPAPGAQRAQMGRVGEIPPPPPEDFPLPPPPLAGDGDDAEGALGGAFPPPPPPIEESFPPAPLEEEIFPSPPPPPEEEGGPEAPIPPPPQPREKVSSIDLEIDSLSSLLDDMTKNDPFKARVSSGYVPPPVATPFSSKSSTKPAAGGTAPLPPWKSPSSSQPLPQVPAPAQSQTQFHVQPQPQPKPQVQLHVQSQTQPVSLANTQPRGPPASSPAPAPKFSPVTPKFTPVASKFSPGAPGGSGSQPNQKLGHPEALSAGTGSPQPPSFTYAQQREKPRVQEKQHPVPPPAQNQNQVRSPGAPGPLTLKEVEELEQLTQQLMQDMEHPQRQNVAVNELCGRCHQPLARAQPAVRALGQLFHIACFTCHQCAQQLQGQQFYSLEGAPYCEGCYTDTLEKCNTCGEPITDRMLRATGKAYHPHCFTCVVCARPLEGTSFIVDQANRPHCVPDYHKQYAPRCSVCSEPIMPEPGRDETVRVVALDKNFHMKCYKCEDCGKPLSIEADDNGCFPLDGHVLCRKCHTARAQT
On to B2, for which the binding entry is listed as “binds”.

B3: Septin 9 (protein, UniProt Q9UHD8 1-586)
chain: MKKSYSGGTRTSSGRLRRLGDSSGPALKRSFEVEEVETPNSTPPRRVQTPLLRATVASSTQKFQDLGVKNSEPSARHVDSLSQRSPKASLRRVELSGPKAAEPVSRRTELSIDISSKQVENAGAIGPSRFGLKRAEVLGHKTPEPAPRRTEITIVKPQESAHRRMEPPASKVPEVPTAPATDAAPKRVEIQMPKPAEAPTAPSPAQTLENSEPAPVSQLQSRLEPKPQPPVAEATPRSQEATEAAPSCVGDMADTPRDAGLKQAPASRNEKAPVDFGYVGIDSILEQMRRKAMKQGFEFNIMVVGQSGLGKSTLINTLFKSKISRKSVQPTSEERIPKTIEIKSITHDIEEKGVRMKLTVIDTPGFGDHINNENCWQPIMKFINDQYEKYLQEEVNINRKKRIPDTRVHCCLYFIPATGHSLRPLDIEFMKRLSKVVNIVPVIAKADTLTLEERVHFKQRITADLLSNGIDVYPQKEFDEDSEDRLVNEKFREMIPFAVVGSDHEYQVNGKRILGRKTKWGTIEVENTTHCEFAYLRDLLIRTHMQNIKDITSSIHFEAYRVKRLNEGSSAMANGMEEKEPEAPEM
On to B3, for which the binding result is recorded as “binds”.

B4: Septin 2 (protein, UniProt Q15019 1-361)
chain: MSKQQPTQFINPETPGYVGFANLPNQVHRKSVKKGFEFTLMVVGESGLGKSTLINSLFLTDLYPERVIPGAAEKIERTVQIEASTVEIEERGVKLRLTVVDTPGYGDAINCRDCFKTIISYIDEQFERYLHDESGLNRRHIIDNRVHCCFYFISPFGHGLKPLDVAFMKAIHNKVNIVPVIAKADTLTLKERERLKKRILDEIEEHNIKIYHLPDAESDEDEDFKEQTRLLKASIPFSVVGSNQLIEAKGKKVRGRLYPWGVVEVENPEHNDFLKLRTMLITHMQDLQEVTQDLHYENFRSERLKRGGRKVENEDMNKDQILLEKEAELRRMQEMIARMQAQMQMQMQGGDGDGGALGHHV
Regarding B4, the binding entry is “binds”.

B5: Outer dense fiber of sperm tails 2 (protein, UniProt Q5BJF6 1-829)
chain: MSASSSGGSPRFPSCGKNGVTSLTQKKVLRAPCGAPSVTVTKSHKRGMKGDTVNVRRSVRVKTKVPWMPPGKSSARPVGCKWENPPHCLEITPPSSEKLVSVMRLSDLSTEDDDSGHCKMNRYDKKIDSLMNAVGCLKSEVKMQKGERQMAKRFLEERKEELEEVAHELAETEHENTVLRHNIERMKEEKDFTILQKKHLQQEKECLMSKLVEAEMDGAAAAKQVMALKDTIGKLKTEKQMTCTDINTLTRQKELLLQKLSTFEETNRTLRDLLREQHCKEDSERLMEQQGALLKRLAEADSEKARLLLLLQDKDKEVEELLQEIQCEKAQAKTASELSKSMESMRGHLQAQLRSKEAENSRLCMQIKNLERSGNQHKAEVEAIMEQLKELKQKGDRDKESLKKAIRAQKERAEKSEEYAEQLHVQLADKDLYVAEALSTLESWRSRYNQVVKEKGDLELEIIVLNDRVTDLVNQQQTLEEKMREDRDSLVERLHRQTAEYSAFKLENERLKASFAPMEDKLNQAHLEVQQLKASVKNYEGMIDNYKSQVMKTRLEADEVAAQLERCDKENKILKDEMNKEIEAARRQFQSQLADLQQLPDILKITEAKLAECQDQLQGYERKNIDLTAIISDLRSRIEHQGDKLEMAREKHQASQKENKQLSLKVDELERKLEATSAQNIEFLQVIAKREEAIHQSQLRLEEKTRECGTLARQLESAIEDARRQVEQTKEHALSKERAAQNKILDLETQLSRTKTELSQLRRSRDDADRRYQSRLQDLKDRLEQSESTNRSMQNYVQFLKSSYANVFGDGPYSTFLTSSPIRSRSPPA
Regarding B5, the binding result is “binds”.

B6: Septin 7 (protein, UniProt Q16181 1-437)
chain: MSVSARSAAAEERSVNSSTMVAQQKNLEGYVGFANLPNQVYRKSVKRGFEFTLMVVGESGLGKSTLINSLFLTDLYSPEYPGPSHRIKKTVQVEQSKVLIKEGGVQLLLTIVDTPGFGDAVDNSNCWQPVIDYIDSKFEDYLNAESRVNRRQMPDNRVQCCLYFIAPSGHGLKPLDIEFMKRLHEKVNIIPLIAKADTLTPEECQQFKKQIMKEIQEHKIKIYEFPETDDEEENKLVKKIKDRLPLAVVGSNTIIEVNGKRVRGRQYPWGVAEVENGEHCDFTILRNMLIRTHMQDLKDVTNNVHYENYRSRKLAAVTYNGVDNNKNKGQLTKSPLAQMEEERREHVAKMKKMEMEMEQVFEMKVKEKVQKLKDSEAELQRRHEQMKKNLEAQHKELEEKRRQFEDEKANWEAQQRILEQQNSSRTLEKNKKKGKIF
In the case of B6, the binding entry is “binds”.
